± gives the standard deviation. The entries are a selection whose mix differs from that of the whole data set. Many of these values have a large error.
system: MILI (PIWIL2) piRISC loaded with L1MC piRNA (26 nt); assay: pre-steady-state target cleavage rate (min^-1); MIWI and MILI are mouse PIWI proteins and EfPiwi is from a freshwater sponge; tags in brackets are library labels; higher = faster piRNA-guided slicing of the target; conditions: guide: L1MC piRNA 5'p-UAACUAAAUACUAUGCAAGCUGUAGG; auxiliary factor: none (no GTSF1)
In short: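 Sequencing of uncleaved targets, normalised to depth and to weakly complementary targets, was the readout of this Cleave-'n-Seq assay. A transcribed, DNA-blocked target RNA library (0.1 nM) was mixed with 1 nM active affinity-purified piRISC carrying one synthetic guide, with or without 500 nM GTSF1 partner protein, in HEPES–potassium acetate buffer at 33 °C for 0–8 or 0–960 min. Three trials were pooled, k3 was capped at 0.0001 min^-1, and a burst-and-steady-state fit gave the pre-steady-state cleavage rate.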

Sequence	pre-steady-state target cleavage rate
UCCUGGAUGUCGUUGCAUAGAAUUUAGUAA	0.000481 ± 0.012
UCCUGGAUGUGGCUUGCAUAGUAUUUAGUUA	0.0089 ± 0.0042
UCCUGGAUCAGCUUGCAUAGUUUUUAGAAA	0.00104 ± 0.0052
UCCUGCUACAGCUUGCAAAGAAUUUAGUUA	0.00324 ± 0.0017
UCCUGCUACAGCUUGCAUAGAAUUUACUUA	0.00114 ± 0.0048
UCCUGGAUCAGCUUGGAUAGUAUUUAGAUA	0.0013 ± 0.0041
UCCUGGAUGUCCUUGAAUAGUAUUUAGUUA	0.011 ± 0.0029
UCCUCCUACAGCUUGCAUAGUGUUUAGUUA	0.00543 ± 0.0025
UCCUGGUUGAGCUUGCAUAGUAUUUAGUUA	0.0113 ± 0.0033
UCCUCCUUGAGCUUGCAUAGUAUUUAGUUA	0.0051 ± 0.0021
UCCUGGAUCAGCUUGGAUAGUAUUAAGUUA	0.00386 ± 0.0022
UCCUGGAUGAGCUUGUAUAGUAUUUAGUUA	0.0088 ± 0.0033
UCCUGGAACAGCUUGCUUAGUAUUUAGAAA	0.00226 ± 0.0031
UCCUCCUACAGCCUUGCAUAGUAUUUAGUUA	0.0101 ± 0.0026
UCCUCCUACAGCUUGCAUACUAUAUAGUUA	0.00157 ± 0.0042
UCCUGCUACAGCUUGGAUAGAAUUUAGUUA	0.0016 ± 0.004
UCCUGGAUCAGCUUGCAUAGAAUUUAGAAA	0.000603 ± 0.0096
UCCUGGAACUGCUUGCAUAGUAUUUAGAAA	0.00165 ± 0.0043
UCCUCCUACAGCUUGCAAAGUAUUAAGUUA	0.00235 ± 0.0032
UCCUGCUACAGCUUGCAUAGUUAAUAGUUA	0.00196 ± 0.0034

Sequence	pre-steady-state target cleavage rate
UCCUGGAACAGGUUGCAUAGUAUAUAGUUA	0.00891 ± 0.0023
UCCUCCUACAGGUUGGAUAGUAUUUAGUUA	0.00699 ± 0.0018
UCCUGGAUCAGGUUGGAUAGUAUUUAGUUA	0.0112 ± 0.0027
UCCUGCAACAGCUUGCAUAGUAUUAAGUUA	0.00432 ± 0.0031
UCCUCCUACAGCUUGGAUAGUUUUUAGUUA	0.00384 ± 0.0019
UCCUGGAUCAGGCUUGCAUAGUAUUUAGUUA	0.0107 ± 0.0028
UCCUCGCUACAGCUUGCAUAGUAUUUAGUUA	0.00839 ± 0.0032
UCCUCCUACAGCGUGCAUAGUAUUUAGUUA	0.00999 ± 0.003
UCCUGGAUGUCGUUCGCAUAGUAUUUAGUUA	0.00567 ± 0.0028
UCCUGGUACAGCUUGCUUAGUAAUUAGUUA	0.0116 ± 0.0032
UCCUGCUUGUGCUUGCAUAGUAUUUAGUUA	0.00616 ± 0.0025
UCCUCCAUCAGCUUGCAUAGUAUUUAGUAA	0.00315 ± 0.0022
UCCUGGAUGAGCUUGCAUAGUAUUUGGUUA	0.00663 ± 0.0031
UCCUCCAACAGCUUGCAUAGUAUUUAGAUA	0.00442 ± 0.0025
UCCUGGAUGUCCUUGCAUAGUAGUUAGUUA	0.00421 ± 0.002
UCCUGCUACAGGUUGCAUAGUAUUUUGUUA	0.00477 ± 0.0031
UCCUGGUACAGCUUGCAAAGAAUUUAGUUA	0.00286 ± 0.004
UCCUGGAACAGCAUGCAUAGUAUAUAGUUA	0.0058 ± 0.0025
UCCUGGAUCAGCUAGCAUAGUAUUUAGUAA	0.00665 ± 0.0023
UCCUGGAUGUGCUUGCAUAGUAUUUCGUUA	0.00115 ± 0.0065

Two records drawn at random from the list so far:
Sequence	pre-steady-state target cleavage rate
UCCUGCUACAGCUUGGAUAGAAUUUAGUUA	0.0016 ± 0.004
UCCUGGAACAGCAUGCAUAGUAUAUAGUUA	0.0058 ± 0.0025
